From paper PMC7872314, “Modeling Bioavailable Concentrations in Zebrafish Cell Lines and Embryos Increases the Correlation of Toxicity Potencies across Test Systems” (Environmental Science & Technology, 2020)
Where two headings read alike, the source gives them in different places.

Columns and labels:
[1] = test system: ZF4 (fibroblasts) cell line; assay: MTS assay (MTS/BCA multiplex), NAD(P)H metabolism; assay type: cell-based, zebrafish (Danio rerio); conditions: Danio rerio, Fibroblast
[2] = test system: ZFL (hepatocytes) cell line; assay: cells; assay type: cell-based, zebrafish (Danio rerio); conditions: Danio rerio, Hepatocyte
[3] = test system: ZF4 (fibroblasts) cell line; assay: BCA assay (MTS/BCA multiplex), protein amount; assay type: cell-based, zebrafish (Danio rerio); conditions: Danio rerio, Fibroblast
[4] = test system: ZFL (hepatocytes) cell line; assay: cells; assay type: cell-based, zebrafish (Danio rerio); conditions: Danio rerio, Hepatocyte; remark: listed apart in the source
[5] = test system: ZF4 (fibroblasts) cell line; assay: ATP assay (ATP/LDH multiplex), ATP metabolism; assay type: cell-based, zebrafish (Danio rerio); conditions: Danio rerio, Fibroblast
[6] = test system: ZFL (hepatocytes) cell line; assay: cells; assay type: cell-based, zebrafish (Danio rerio); conditions: Danio rerio, Hepatocyte; remark: listed apart in the source
[7] = test system: ZF4 (fibroblasts) cell line; assay: alamarBlue (AB) endpoint of AB/CFDA/NR multiplex, cellular respiration; assay type: cell-based, zebrafish (Danio rerio); conditions: Danio rerio, Fibroblast
[8] = test system: ZFL (hepatocytes) cell line; assay: cells; assay type: cell-based, zebrafish (Danio rerio); conditions: Danio rerio, Hepatocyte; remark: listed apart in the source
[9] = test system: ZF4 (fibroblasts) cell line; assay: CFDA endpoint of AB/CFDA/NR multiplex, membrane stability; assay type: cell-based, zebrafish (Danio rerio); conditions: Danio rerio, Fibroblast
[10] = test system: ZFL (hepatocytes) cell line; assay: cells; assay type: cell-based, zebrafish (Danio rerio); conditions: Danio rerio, Hepatocyte; remark: listed apart in the source
[11] = test system: ZF4 (fibroblasts) cell line; assay: Neutral red, absorbance (NRa), AB/CFDA/NR multiplex, lysosome stability; assay type: cell-based, zebrafish (Danio rerio); conditions: Danio rerio, Fibroblast
[12] = test system: ZFL (hepatocytes) cell line; assay: cells; assay type: cell-based, zebrafish (Danio rerio); conditions: Danio rerio, Hepatocyte; remark: listed apart in the source
[13] = test system: ZF4 (fibroblasts) cell line; assay: Neutral red, fluorescence (NRf), AB/CFDA/NR multiplex, lysosome stability; assay type: cell-based, zebrafish (Danio rerio); conditions: Danio rerio, Fibroblast
[14] = test system: ZFL (hepatocytes) cell line; assay: cells; assay type: cell-based, zebrafish (Danio rerio); conditions: Danio rerio, Hepatocyte; remark: listed apart in the source
ZF4 and ZFL cell lines = assay: Cytotoxicity assays, all endpoints, both cell lines (mean/range); assay type: cell-based, zebrafish (Danio rerio); conditions: 48 h
[15] = test system: diverse mammalian cell assay results; set-up: method as in https://comptox.epa.gov/dashboard/; conditions: COMPTOX; ref https://comptox.epa.gov/dashboard/; read-out: median AC50; cited from earlier work

COCC(=O)Nc1cc(Sc2ccccc2)ccc1N/C(=N\C(=O)OC)NC(=O)OC [Febantel, febantel]
IC50 ([1]; MTS - ZF4, log10 of IC50, read-out: LogIC50 (converted)): 63.1 µM
IC50 ([1]; MTS - ZF4, read-out: IC50): 63.1 µM
IC50 ([1]; ZF4, 48 h exposure, nominal, log10, read-out: logIC50 (log10 IC50;nom) MTS (converted)): 63.1 µM
IC50 ([1]; ZF4, 48 h exposure, nominal, read-out: IC50;nom MTS): 63.1 µM
IC50 [2]: 60.4 µM
IC50 ([2]; 48 h, read-out: IC50;nom MTS): 60.4 µM
IC50 ([2]; 48 h, read-out: logIC50 (log10 IC50 (converted);nom) MTS): 60.3 µM
IC50 ([2]; read-out: LogIC50 (converted)): 60.4 µM
IC50 ([3]; BCA - ZF4, log10 of IC50, read-out: LogIC50 (converted)): 390 µM
IC50 ([3]; BCA - ZF4, read-out: IC50): 390 µM
IC50 ([3]; ZF4, 48 h exposure, nominal, log10, read-out: logIC50 (log10 IC50;nom) BCA (converted)): 389 µM
IC50 ([3]; ZF4, 48 h exposure, nominal, read-out: IC50;nom BCA): 390 µM
IC50 [4]: 52.9 µM
IC50 ([4]; 48 h, read-out: IC50;nom BCA): 52.9 µM
IC50 ([4]; 48 h, read-out: logIC50 (log10 IC50 (converted);nom) BCA): 52.5 µM
IC50 ([4]; read-out: LogIC50 (converted)): 52.9 µM
IC50 ([5]; ATP - ZF4, log10 of IC50, read-out: LogIC50 (converted)): 35.9 µM
IC50 ([5]; ATP - ZF4, read-out: IC50): 35.9 µM
IC50 ([5]; ZF4, 48 h exposure, nominal, log10, read-out: logIC50 (log10 IC50;nom) ATP (converted)): 35.5 µM
IC50 ([5]; ZF4, 48 h exposure, nominal, read-out: IC50;nom ATP): 35.9 µM
IC50 [6]: 130 µM
IC50 ([6]; 48 h, read-out: IC50;nom ATP): 130 µM
IC50 ([6]; 48 h, read-out: logIC50 (log10 IC50 (converted);nom) ATP): 129 µM
IC50 ([6]; read-out: LogIC50 (converted)): 130 µM
IC50 ([7]; AB - ZF4, log10 of IC50, read-out: LogIC50 (converted)): 66.1 µM
IC50 ([7]; AB - ZF4, read-out: IC50): 66.1 µM
IC50 ([7]; ZF4, 48 h exposure, nominal, log10, read-out: logIC50 (log10 IC50;nom) AB (converted)): 66.1 µM
IC50 ([7]; ZF4, 48 h exposure, nominal, read-out: IC50;nom AB): 66.1 µM
IC50 [8]: 16.5 µM
IC50 ([8]; 48 h, read-out: IC50;nom AB): 16.5 µM
IC50 ([8]; 48 h, read-out: logIC50 (log10 IC50 (converted);nom) AB): 16.6 µM
IC50 ([8]; read-out: LogIC50 (converted)): 16.5 µM
IC50 ([9]; CFDA - ZF4, log10 of IC50, read-out: LogIC50 (converted)): 130 µM
IC50 ([9]; CFDA - ZF4, read-out: IC50): 130 µM
IC50 ([9]; ZF4, 48 h exposure, nominal, log10, read-out: logIC50 (log10 IC50;nom) CFDA (converted)): 129 µM
IC50 ([9]; ZF4, 48 h exposure, nominal, read-out: IC50;nom CFDA): 130 µM
IC50 [10]: 99 µM
IC50 ([10]; 48 h, read-out: IC50;nom CFDA): 99 µM
IC50 ([10]; 48 h, read-out: logIC50 (log10 IC50 (converted);nom) CFDA): 100 µM
IC50 ([10]; read-out: LogIC50 (converted)): 99 µM
IC50 ([11]; NR-abs - ZF4, log10 of IC50, read-out: LogIC50 (converted)): 37.6 µM
IC50 ([11]; NR-abs - ZF4, read-out: IC50): 37.6 µM
IC50 ([11]; ZF4, 48 h exposure, nominal, log10, read-out: logIC50 (log10 IC50;nom) NRa (converted)): 37.2 µM
IC50 ([11]; ZF4, 48 h exposure, nominal, read-out: IC50;nom NRa): 37.6 µM
IC50 ([11]; ZF4 cell line, NRa endpoint, nominal, read-out: IC50;nom): 16.8 µg/mL
IC50 [12]: 22.8 µM
IC50 ([12]; 48 h, read-out: IC50;nom NRa): 22.8 µM
IC50 ([12]; 48 h, read-out: logIC50 (log10 IC50 (converted);nom) NRa): 22.9 µM
IC50 ([12]; read-out: LogIC50 (converted)): 22.8 µM
IC50 ([13]; NR-fluo - ZF4, log10 of IC50, read-out: LogIC50 (converted)): 34.3 µM
IC50 ([13]; NR-fluo - ZF4, read-out: IC50): 34.3 µM
IC50 ([13]; ZF4, 48 h exposure, nominal, log10, read-out: logIC50 (log10 IC50;nom) NRf (converted)): 34.7 µM
IC50 ([13]; ZF4, 48 h exposure, nominal, read-out: IC50;nom NRf): 34.3 µM
IC50 [14]: 22.4 µM
IC50 ([14]; 48 h, read-out: IC50;nom NRf): 22.4 µM
IC50 ([14]; 48 h, read-out: logIC50 (log10 IC50 (converted);nom) NRf): 22.4 µM
IC50 ([14]; read-out: LogIC50 (converted)): 22.4 µM
IC50 (ZF4 and ZFL cell lines; Danio rerio, read-out: Mean log IC50nom, mean of all cytotoxicity endpoints (without LDH) in ZF4 and ZFL, 48 h, log10 (converted)): 56.2 µM
Mean log IC50nom (ZF4 and ZFL cell lines; mean of all cytotoxicity endpoints (without LDH) in ZF4 and ZFL, log10, listed as Feb): -4.248 M
AC50 [15]: 4.89 µM
